# Experimental data as given in publication PMC5069676.
# Protein sequences, listed by entry. Tags and fused reporters are not part of them.
# UniProt P12004: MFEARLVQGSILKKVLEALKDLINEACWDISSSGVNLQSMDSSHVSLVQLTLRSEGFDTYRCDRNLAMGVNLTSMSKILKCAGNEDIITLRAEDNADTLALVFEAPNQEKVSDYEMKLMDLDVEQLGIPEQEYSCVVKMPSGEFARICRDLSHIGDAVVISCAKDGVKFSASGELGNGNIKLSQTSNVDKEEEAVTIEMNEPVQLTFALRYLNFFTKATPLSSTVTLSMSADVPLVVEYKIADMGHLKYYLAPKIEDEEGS
# UniProt P43490: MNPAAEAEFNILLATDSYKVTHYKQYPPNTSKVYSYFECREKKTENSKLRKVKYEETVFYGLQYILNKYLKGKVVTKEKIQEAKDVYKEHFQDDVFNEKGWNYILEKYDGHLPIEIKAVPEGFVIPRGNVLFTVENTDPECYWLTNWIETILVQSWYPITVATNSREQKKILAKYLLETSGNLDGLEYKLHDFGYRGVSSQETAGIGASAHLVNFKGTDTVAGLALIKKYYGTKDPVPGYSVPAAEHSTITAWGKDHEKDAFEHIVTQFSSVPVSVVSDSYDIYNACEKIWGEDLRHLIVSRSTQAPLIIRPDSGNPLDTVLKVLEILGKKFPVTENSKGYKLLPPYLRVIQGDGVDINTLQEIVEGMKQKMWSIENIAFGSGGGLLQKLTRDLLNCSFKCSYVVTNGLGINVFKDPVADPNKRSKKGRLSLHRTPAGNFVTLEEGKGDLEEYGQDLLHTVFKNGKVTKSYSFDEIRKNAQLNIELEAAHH
# These are yes or no findings as the source states them, for the method shown. Some entries that bind do so weakly or less than the wild type.
# Molecular target: recombinant proliferating cell nuclear antigen (PCNA) (UniProt P12004)
# Assay: SPR; Biacore T200; PCNA immobilised on a CM5 chip; p21 (2 uM), NAMPT (120 nM) or a mixture of both injected at 20 ul/min for 100 s, dissociation followed for 400 s; both purified
substance,measurement,value
purified nicotinamide phosphoribosyltransferase (NAMPT) (from UniProt P43490 1-491) (enzyme),binding,binds
